For one molecule, binding results are on record in patent US20040171810A1.

Experiment [1] addresses T1, PDZ domain of RIM1 (GST fusion protein) (UniProt Q9JIR4).
T1 sequence (looked up): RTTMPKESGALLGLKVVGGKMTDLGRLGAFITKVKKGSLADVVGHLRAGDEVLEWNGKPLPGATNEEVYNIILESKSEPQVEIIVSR
In words: binding of GST fusion proteins of domains (FIG. 6).

The target in experiment [2] is T1, PDZ domain of RIM1 (GST fusion protein). As to the kind of experiment: co-immunoprecipitation of RIM1 with domains of CAST and of CAST with domains of RIM1 (FIG. 6).

No constants are given. Whether binding was seen depends on the method and setting. For some assays here: In cells and extracts the contact can be indirect. Some entries that bind do so weakly or less than the wild type. Tags and fused reporters may be left off the sequences shown.

B1: C-terminal domain of CAST (GST fusion protein) (protein, not shown: a dimerising Fc or GST)
chain: DQNKKVANLKHNQQLEKKKNAQLLEEVRRREFSMVDNSQHLQIEELMNALEKTRQELDATKARLASTQQSLAEKEAHLANLRMERRKQLEEILEMKQEALLAAISEKDANIALLELSASKKKKTQEEVMALKREKDRLVHQLKQQTQNRMKLMADNYDDDHHHYHHHHHHHHHRSPGRSQHSNHRPSPDQDDEEGIWA
B1: the binding entry in experiment [1] and in experiment [2] was “binds” in each case.
